# Reference: patent US20210386743A1, “USE OF PDE9 INHIBITORS FOR TREATMENT” (The Johns Hopkins University, priority 2018, published 2021)
# Columns and labels:
# [1] = test system: OVX+HFD+TAC female mice (C57BL/6N); assay: Whole body metabolism by indirect calorimetry (CLAMS metabolic cage) in OVX+HFD+TAC female mice; assay type: in vivo, mouse; settings: OVX+HFD+TAC females, vs vehicle
# Protocol: (§1) All animals were fed a high fat diet (HFD) consisting of 60% kcal derived from fat was fed to both male and female C57BL6N mice for 3 months. Mice were divided into two groups: 1) Controls with intact ovaries; 2) Ovariectomized (Ovx) mice. Mice were assigned to receive trans-aortic constriction (TAC) or sham surgery after 3 months of HFD, and further randomized to placebo vehicle and PDE9-I (PDE9 inhibitor oral gavage 20 mg/kg twice daily) (FIG. 1). Comparison of Group 1 and 2 tests the efficacy of PDE9-I to ameliorate and/or reverse HFD and pressure-overload pathophysiology independent of sex hormone status.
# (§2) Whole body metabolism: Indirect calorimetry was used to assess metabolic parameters in live animals using the OxyMAX Comprehensive Lab Animal Monitoring System (Columbus Instruments, Columbus Ohio). Basic metabolic rate (VO2 consumption), VCO2 release and energy expenditure (EE) were measured by indirect calorimetry in high-fat-fed OVX mice groups treated with (Drug) and without PDE9 inhibitor (Control). Respiratory exchange ratio (RER) was calculated from VCO2 release-to-VO2 consumption ratio (VCO2 release/VO2 consumption). CLAMS cabinet was used to measure oxygen consumption rate at 22° C. (VO2), CO2 emission, respiratory exchange ratio, heat production, food consumption (g consumed per day), and total and ambulatory activity per day.
# Female mice (C57BL/6N) were placed on a 60% fat diet starting at age 5-weeks. Two weeks later, there were randomized to receive bilateral oophorectomy or sham surgery. Cardiac imaging for ventricular function and morphometry was determined 2 months later. Between 8-11 weeks after ovariectomy, the mice underwent a second surgical procedure introducing a mild aortic constriction (TAC) in the transverse aorta to increase pressure load on the heart. The purpose of the TAC procedure was to stimulate the heart to synthesize natriuretic peptide, which is important for the generation of cyclic GMP which PDE9 regulates. Serial echocardiograms were obtained, and starting 1 week after TAC, mice were further randomized to receive vehicle control or a PDE9 inhibitor (PF-7943). Intact mouse metabolic studies, fat/lean mass determinations, and heart function were assessed. At terminal study, tissues were harvested for molecular signaling.
# RER is calculated from VCO2/VO2 ratio. […] Even if fat mass is assumed to contribute only 15% of total metabolic activity relative to lean mass, these differences remain significant (data not shown). […] P values are for unpaired t-tests between groups.
# [2] = test system: C57BL6/N female mice with intact ovaries, HFD+TAC; assay: Whole body metabolism (indirect calorimetry) in HFD+TAC female mice with intact ovaries; assay type: in vivo, mouse; settings: females with intact ovaries, HFD + pressure overload
# Protocol: as §1, §2
# In a second experiment, we examined the impact of PDE9 inhibition on female mice (C57BL6/N) subjected to HFD+TAC, but without ovariectomy and thus had normal estrogen levels.
compound,measurement,setting,value
C[C@@H]1CN(Cc2ncccn2)C[C@H]1c1nc2c(cnn2C2CCOCC2)c(=O)[nH]1 [PF 04447943],ambulatory activity,[1]; listed as PDE9-I,no significant differences
same,food intake,[1]; listed as PDE9-I,no significant differences
same,total activity,[1]; listed as PDE9-I,no significant differences
same,ambulatory activity,[1]; listed as PDE9 inhibitor,without a concomitant change
same,food intake,[1]; listed as PDE9 inhibitor,without a concomitant change
same,total activity,[1]; listed as PDE9 inhibitor,without a concomitant change
same,ambulatory activity,[2],do not show any changes
same,food intake,[2]; listed as PDE9-I,no difference
same,total activity,[2]; listed as PDE9-I,no difference
same,food intake,[2]; listed as PDE9i,do not show any changes
same,total activity,[2]; listed as PDE9i,do not show any changes
